Laboratory results: PubChem BioAssay AID1259405 (NCATS, 2018)
Assay: 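Silenced genes that increase secreted GFP made by CHO cells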 (primary screen). Cell system: Chinese hamster CHO-K1 ovary cells with stable secreted eGFP expression. Reagent: single siRNA against mouse genes, 0.8 pmol siRNA per well (2 µl of 400 nM stock). Time to read-out: 3 days. Read-out: 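Per-well intracellular GFP measured by laser scanning cytometry, plus viability from ATP luminescence, each relative to plate median of non-targeting control wells, in %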. Reading the numbers: GFP, % of control: higher = more GFP per well, higher productivity; viability (ATP), % of control: higher = more viable cells (more ATP). Rule for the call: 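a knock-down is called active if GFP reaches 120% or more of non-targeting control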.
The deposit covers about 50,000 reagents; shown is a part drawn at random. About 4,000 of them (8%) count as active. 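Mouse siRNA library applied to hamster cells; one well for each siRNA.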 The numbers tell different reagents against one gene apart. Reagent sequences are not shown.

target gene | siRNA no. | GFP, % of control | viability (ATP), % of control | outcome
Ptpn21 | 1 | 48.1 | 86.2 | inactive
Ptpn21 | 2 | 87.2 | 68.5 | inactive
Ptpn21 | 3 | 63.1 | 88.3 | inactive
Stac | 1 | 94.8 | 75.5 | inactive
Stac | 2 | 76.2 | 80.9 | inactive
Stac | 3 | 69.8 | 78.6 | inactive
Rita1 | 1 | 99.9 | 86.9 | inactive
Rita1 | 2 | 88.9 | 53.5 | inactive
Rita1 | 3 | 127 | 113 | active
P4htm | 1 | 39.3 | 37.5 | inactive
P4htm | 2 | 76 | 74.4 | inactive
P4htm | 3 | 63.5 | 56.9 | inactive
Il10rb | 1 | 46.8 | 81.6 | inactive
Il10rb | 2 | 48.7 | 55.1 | inactive
Synj2bp | 1 | 70 | 41.9 | inactive
Synj2bp | 2 | 80.8 | 107 | inactive
Synj2bp | 3 | 137 | 143 | active
Zfp715 | 1 | 77.6 | 50 | inactive
Zfp715 | 2 | 125 | 95.4 | active
Slc43a3 | 1 | 75.7 | 65.8 | inactive
Slc43a3 | 2 | 61 | 49.1 | inactive
Mepe | 1 | 53 | 75.7 | inactive
Mepe | 2 | 105 | 74.4 | inactive
Mepe | 3 | 83.3 | 72.3 | inactive
Rnase11 | 1 | 90.9 | 119 | inactive
Rnase11 | 2 | 107 | 46.9 | inactive
Rnase11 | 3 | 53.7 | 85.2 | inactive
Gtpbp6 | 1 | 63.3 | 60.7 | inactive
Gtpbp6 | 2 | 125 | 76.2 | active
Gtpbp6 | 3 | 124 | 110 | active
Ndel1 | 1 | 57.6 | 64.2 | inactive
Ndel1 | 2 | 70 | 87.3 | inactive
Ndel1 | 3 | 82.5 | 62.6 | inactive
Dcaf8l | 1 | 36.7 | 53.9 | inactive
Dcaf8l | 2 | 73.3 | 73.7 | inactive
Dcaf8l | 3 | 46.8 | 80.6 | inactive
